Patent publication US10792284B2, “Synergistic cancer treatment” (Memorial Sloan Kettering Cancer Center, priority 2015, dated 2020)
At least one structure is not confirmed: it was looked up by name or label, or the drawing left a doubt.

Key:
A549 xenografts = A549 xenografts harboring tet-responsive FGFR1 or non-targeting control shRNAs; format: in vivo, mice; details: 3 mg/kg daily, relative to vehicle
H23 xenografts = H23 xenografts harboring tet-responsive FGFR1 or non-targeting control shRNAs; format: in vivo, mice; details: 3 mg/kg daily
[1] = test system: pFRS2, ERK and AKT signaling in JHU-LX55a patient derived xenografts; assay: IHC and immunoblot of xenograft tumor tissue; format: in vivo, mice; details: 18 days of treatment
[2] = test system: ERK, AKT, STAT3 and FRS2 phosphorylation in KRAS-mutant lung cancer cell lines; assay: Immunoblot of signaling in drug-treated cells
[3] = test system: pFRS2 in KRAS-mutant lung adenocarcinoma; assay: IHC for phospho-FRS2 in paired patient tumor biopsies; format: in vivo, human; details: two patients, before and after trametinib treatment (with navitoclax, NCT02079740)
[4] = test system: KRAS-mutant lung cancer cell lines; assay: Clonogenic assay; format: cell-based, human; details: KRAS-mutant compared with BRAF-mutant lung cancer cells
Protocol: All experiments were performed at least three times. Representative experiments are shown.

[5] = test system: FGFR1, FGF2, EGFR, MET and ERBB2 expression in KRAS-mutant lung cancer cells; assay: qRT-PCR of RTK and ligand expression after trametinib; format: cell-based, human
[6] = prolonged exposure of KRAS-mutant cells

SMILES: CC(=O)Nc1cccc(-n2c(=O)n(C3CC3)c(=O)c3c(Nc4ccc(I)cc4F)n(C)c(=O)c(C)c32)c1 [Trametinib]
- tumor growth, Trametinib alone (A549 xenografts): no significant tumor inhibition
- tumor growth, Trametinib combined with FGFR1 knockdown (H23 xenografts; A549 and H23 xenografts with FGFR1 shRNA and doxycycline): potent tumor inhibition and caused tumor regression in most tumors
- tumor growth, Trametinib alone (H23 xenografts; H23 xenografts, relative to vehicle): modest inhibition of tumor growth
- pFRS2 levels and ERK and AKT signaling in tumors [1]: increase in the levels of pFRS2
- durability of ERK signaling inhibition (ERK phosphorylation) ([2]; 25 nM Trametinib, 6-12 days): increased ERK phosphorylation in all KRAS-mutant cell lines after 6-12 days
- AKT phosphorylation after prolonged exposure [2, 6]: AKT phosphorylation was sustained
- STAT3 phosphorylation after prolonged exposure [2, 6]: transient and returned to baseline after several days
- phosphorylation of FRS2 ([2]; upon treatment with Trametinib): increased phosphorylation of the downstream effector FRS2
- pFRS2 levels in post-treatment biopsies [3]: pronounced increase in pFRS2 levels
- sensitivity in clonogenic assays, KRAS-mutant versus BRAF-mutant lung cancer cells [4]: KRAS-mutant cells being more resistant
- expression of MET, ERBB2 and EGFR ([5]; upon MEK inhibition (trametinib)): upregulation of MET and ERBB2, but not EGFR
- expression of FGFR1 and/or its ligand FGF2 ([5]; upon treatment with Trametinib): significantly upregulated
